Record: PubChem BioAssay AID1259254 (NCATS, 2017)
Test: 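Genome-wide screen for genes that prevent DNA re-replication in cancer cells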 (primary screen). System: human HCT116 colorectal cancer cells. Reagents: single siRNA against human genes. Duration: 3 days. Detection: 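Imaged Hoechst DNA stain sorts each cell into a cycle phase by DNA amount; per plate, G2 fraction set to 0% for non-targeting and 100% for GMNN siRNA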. Reading the numbers: G2 robust z-score and G2 cells, % of GMNN control: higher = more G2 cells, more excess DNA replication; raw share of cells in G2: higher = larger share of cells with G2 DNA content. Active means: 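Active siRNAs have a G2 robust z of 5 or more median absolute deviations over the median, which in these data means about 38% or higher of GMNN control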.
Shown is an unselected part of about 59,000 reagents tested. About 1,550 of them (2.6%) were called active. 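G2 share is only a proxy for re-replication; each gene was hit by three separate siRNAs, and active genes were retested.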 The raw values are shown without normalisation. The numbers tell different reagents against one gene apart. No sequences are given here. Not stated in the record: the amount of reagent.

| target gene | siRNA no. | G2 robust z-score | G2 cells, % of GMNN control | raw share of cells in G2 (%) | activity call |
| --- | --- | --- | --- | --- | --- |
| LINC01098 | 1 | 2.01 | 17.1 | 9.87 | inactive |
| LINC01098 | 2 | -0.109 | 2.2 | 3.89 | inactive |
| LINC01098 | 3 | -0.877 | -3.2 | 2.29 | inactive |
| CAAP1 | 1 | 2.11 | 17.8 | 11.9 | inactive |
| CAAP1 | 2 | -0.684 | -1.84 | 3.5 | inactive |
| CAAP1 | 3 | -0.153 | 1.89 | 2.89 | inactive |
| ADGRG1 | 1 | 1 | 10 | 9.43 | inactive |
| ADGRG1 | 2 | -1.43 | -7.12 | 2.03 | inactive |
| ADGRG1 | 3 | -0.114 | 2.17 | 3.93 | inactive |
| CARD6 | 1 | -0.888 | -3.28 | 3.57 | inactive |
| CARD6 | 2 | -0.459 | -0.259 | 4.1 | inactive |
| CARD6 | 3 | -0.118 | 2.14 | 6.32 | inactive |
| PRSS42P | 1 | -0.0248 | 2.79 | 6.78 | inactive |
| PRSS42P | 2 | -1.18 | -5.33 | 2.72 | inactive |
| PRSS42P | 3 | -0.263 | 1.11 | 4.68 | inactive |
| CCER2 | 1 | 0.795 | 8.56 | 6.35 | inactive |
| CCER2 | 2 | -0.572 | -1.06 | 2.84 | inactive |
| CCER2 | 3 | -0.14 | 1.98 | 4.39 | inactive |
| DKK2 | 1 | -0.648 | -1.59 | 3.25 | inactive |
| DKK2 | 2 | 2.73 | 22.2 | 12.9 | inactive |
| DKK2 | 3 | -0.9 | -3.36 | 2.19 | inactive |
| MYL12A | 1 | -1.02 | -4.22 | 3.86 | inactive |
| MYL12A | 2 | -1.03 | -4.26 | 2.47 | inactive |
| MYL12A | 3 | -0.514 | -0.651 | 6.22 | inactive |
| GPSM1 | 1 | -1.01 | -4.14 | 4.29 | inactive |
| GPSM1 | 2 | 0.0585 | 3.38 | 5.31 | inactive |
| GPSM1 | 3 | -0.8 | -2.66 | 3.12 | inactive |
| LXN | 1 | -0.586 | -1.16 | 3.89 | inactive |
| LXN | 2 | 1.42 | 12.9 | 10.6 | inactive |
| LXN | 3 | 0.947 | 9.63 | 6.08 | inactive |
| KIAA1958 | 1 | 0.0272 | 3.16 | 4.73 | inactive |
| KIAA1958 | 2 | 5.07 | 38.7 | 15.9 | active |
| KIAA1958 | 3 | 0.325 | 5.25 | 4.42 | inactive |
| NUDT13 | 1 | -1.46 | -7.32 | 1.66 | inactive |
| NUDT13 | 2 | -1.33 | -6.39 | 1.17 | inactive |
| NUDT13 | 3 | 0.591 | 7.12 | 5.79 | inactive |
| PLAAT5 | 1 | 3.57 | 28.1 | 15.3 | inactive |
| PLAAT5 | 2 | 1.08 | 10.6 | 6.48 | inactive |
| PLAAT5 | 3 | -0.645 | -1.57 | 1.36 | inactive |
| RDH8 | 1 | -0.735 | -2.2 | 2.96 | inactive |
| RDH8 | 2 | 4.05 | 31.5 | 20.2 | inactive |
| RDH8 | 3 | -0.892 | -3.31 | 3.02 | inactive |
| TRMT61B | 1 | -0.707 | -2.01 | 3.75 | inactive |
| TRMT61B | 2 | 0.775 | 8.42 | 7.63 | inactive |
| TRMT61B | 3 | -0.437 | -0.108 | 3.1 | inactive |
| LINC01300 | 1 | 1.26 | 11.8 | 8.37 | inactive |
| LINC01300 | 2 | -0.647 | -1.59 | 2.91 | inactive |
| LINC01300 | 3 | 2.73 | 22.2 | 12.4 | inactive |
